According to US20220119540A1 (NANJING GENSCRIPT BIOTECH, published 2022):
Results are given in words; binding and its absence hold for the method and conditions named. Some binding calls cover weakened binding; strength is not graded here. Tags and fused reporters may be left off the sequences shown.

Experiments:
[1] = target: T1, Recombinant human OX40-His protein (human, UniProt P43489 29-214, limits assumed); assay: ELISA on coated recombinant protein
T1 construct: Recombinant antigen protein; also called recombinant human OX-40 protein; human OX-40 protein; not shown: His tag
T1 sequence (looked up): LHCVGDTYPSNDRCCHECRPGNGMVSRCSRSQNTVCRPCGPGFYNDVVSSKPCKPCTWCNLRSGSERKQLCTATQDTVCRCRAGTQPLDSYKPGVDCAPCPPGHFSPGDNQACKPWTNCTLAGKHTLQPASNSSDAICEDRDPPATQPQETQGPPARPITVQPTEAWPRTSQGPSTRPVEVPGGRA

[2] = target: T1, Recombinant human OX40-His protein; assay: ELISA; plate coated with recombinant human OX-40 (OX40-His), antibody from 1000 ng/ml in 3-fold dilutions, HRP goat anti-human Fab, OD450
[3] = target: T1, Recombinant human OX40-His protein; assay: SPR (Biacore 8K); OX40-HIS amine-coupled to the chip, antibody injected at 2.5-80 nM for 200 s, 400 s dissociation; 1:1 binding fit overlaid

Measured: binding

B1: Chimeric antibody (anti-human OX40, recombinant, human IgG1/kappa constant regions) (antibody, V domains shown)
VH: QIQLVQSGPELKKPGETVKISCKASGYTFTDYSMHWVKQAPGKGLKWMGWISTETGEPTYADDFKGRFAFSLETSASTAYLQIKNLKNEDTASYFCARVRPWYLAVWGAGTTVTVSS
VL: DIQMTQTTSSLSASLGDRVTISCRASQDISNYLNWYQQKPDGTVKLLIYYTSRLYSGVPSRFSGSGSGADYSLTVSNLEQEDIATYFCQQANTLPLTFGAGTKLELK
binds: all assays above
